Assay results taken from the supplement of paper PMC11732987, “Enantioselective OTUD7B fragment discovery through chemoproteomics screening and high-throughput optimisation” (Communications Chemistry, 2025).
The other results are listed elsewhere or left out. The data scatter; read single values as rough.

Experiments:
[1] = compound: ClCC(=O)N[C@@H]1CCCc2ccccc12; experiment: log2 mean competition ratio of IA-DTB cysteine labelling (DMSO/compound) (log2 ratio); higher = stronger cysteine engagement by compound; settings: treatment time: 4 h, cell line lysate: HEK293T
Protocol: (§1)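 IA-DTB competitive cysteine chemoproteomics in HEK293T RIPA lysate. Lysates were treated with compound 29 or 30 at 50 or 200 µM for 4 h, then IA-DTB (500 µM, 1 h), trypsin-digested, NeutrAvidin-enriched and analysed by diaPASEF. Competition ratio = intensity DMSO / intensity compound (n=4 treated, n=64 DMSO); binding: mean log2 CR ≥ 1 and p ≤ 0.05 plus QC filters. Target is the cysteine site.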

[2] = compound: ClCC(=O)N[C@H]1CCCc2ccccc12; experiment: as above; settings: treatment time: 4 h, cell line lysate: HEK293T
Protocol: as §1

Row | Target | log2 mean competition ratio ([1]; 50 µM) | log2 mean competition ratio ([1]; 200 µM) | log2 mean competition ratio ([2]; 50 µM) | log2 mean competition ratio ([2]; 200 µM)
1 | COMMD4 C107 (UniProt Q9H0A8) | 0.259 | -0.17 | – | –
2 | CLK3 C321 (UniProt P49761) | -0.0113 | 0.116 | – | –
3 | COPS7B C240 (UniProt Q9H9Q2) | 0.00674 | -0.165 | -0.206 | -0.237
4 | CPS1 C761 (UniProt P31327) | 0.237 | -0.0357 | 0.517 | -0.058
5 | CMTM3 C38 (UniProt Q96MX0) | 0.373 | 0.149 | -0.0159 | 0.193
6 | COG6 C32 (UniProt Q9Y2V7) | -0.231 | -0.264 | -0.538 | -0.502
7 | COG3 C697 (UniProt Q96JB2) | -0.0283 | -0.237 | -0.137 | -0.249
8 | CLIC4 C234 (UniProt Q9Y696) | -0.024 | -0.358 | 0.372 | -0.421
9 | COPA C522 (UniProt P53621) | 0.185 | -0.0244 | -0.563 | -0.371
10 | CPSF1 C1102 (UniProt Q10570) | -0.0715 | 0.114 | -0.23 | -0.054
11 | CHUK C658 (UniProt O15111) | 0.351 | -0.0469 | 0.216 | -0.0314
12 | COG2 C287 (UniProt Q14746) | 0.469 | 0.203 | 0.253 | -0.0345
13 | CPSF2 C335 (UniProt Q9P2I0) | 0.275 | -0.0129 | 0.103 | 0.121
14 | CIAO1 C97 (UniProt O76071) | -0.41 | -0.327 | -0.183 | -0.435
15 | CIC C1432 | 0.026 | -0.00597 | -0.0271 | 0.221
16 | COG3 C363 (UniProt Q96JB2) | -0.0487 | -0.245 | 0.711 | -0.273
17 | COMMD4 C34 (UniProt Q9H0A8) | 0.0639 | -0.145 | 0.425 | -0.394
18 | COPG1 C44 (UniProt Q9Y678) | 0.421 | -0.322 | 0.512 | -0.41
19 | CNOT1 C50 (UniProt A5YKK6) | 0.161 | -0.0149 | -0.0717 | 0.0292
20 | CHD9 C881 (UniProt Q3L8U1) | -0.0202 | 0.292 | 0.0429 | 0.384
21 | COG7 C475 (UniProt P83436) | 0.0616 | -0.00996 | -0.263 | -0.0618
22 | CLK2 C180 (UniProt P49760) | -0.0934 | -0.0793 | -0.248 | -0.0506

Individual results from the entries so far:
log2 mean competition ratio ([2]; 50 µM), COG3 C697 (UniProt Q96JB2) reads -0.137
log2 mean competition ratio ([1]; 50 µM), CPSF1 C1102 (UniProt Q10570) reads -0.0715

Additional results:

Row | Target | log2 mean competition ratio ([1]; 50 µM) | log2 mean competition ratio ([1]; 200 µM) | log2 mean competition ratio ([2]; 50 µM) | log2 mean competition ratio ([2]; 200 µM)
23 | CHEK1 C48 (UniProt O14757) | -0.11 | -0.00715 | -0.109 | -0.0551
24 | CPSF4 C41 (UniProt O95639) | 0.134 | -0.178 | -0.145 | 0.126
25 | CPSF2 C346 (UniProt Q9P2I0) | -0.446 | -0.126 | -0.339 | 0.293
26 | CMTR1 C504 (UniProt Q8N1G2) | -0.27 | -0.0239 | -0.314 | -0.117
27 | CKAP5 C1203 (UniProt Q14008) | 0.154 | -0.0833 | 0.522 | -0.124
28 | CHEK2 C362 (UniProt O96017) | -0.202 | 0.0727 | -0.272 | 0.0907
29 | CRACR2A C291 (UniProt Q9BSW2) | 0.246 | -0.222 | 0.113 | -0.399
30 | CKAP5 C1946 (UniProt Q14008) | -0.0614 | 0.0367 | 0.0172 | 0.0849
31 | CPSF4 C105 (UniProt O95639) | -0.173 | -0.0774 | -0.0946 | -0.139
32 | CNBP C158 (UniProt P62633) | 0.277 | -0.266 | 0.429 | -0.279
33 | COG6 C354 (UniProt Q9Y2V7) | 0.232 | -0.154 | 0.0277 | 0.0161
34 | CIAO3 C453 (UniProt Q9H6Q4) | 0.371 | -0.223 | 1.46 | -0.339
35 | COPG1 C169 (UniProt Q9Y678) | 0.0793 | -0.262 | 0.382 | -0.148
36 | CRACD C860 | 0.168 | -0.0882 | -0.244 | 0.182
37 | CLSPN C763 (UniProt Q9HAW4) | -0.443 | -0.151 | -0.207 | -0.283
38 | COQ3 C155 (UniProt Q9NZJ6) | -0.167 | 0.576 | -0.338 | 0.299
39 | CHPT1 C386 (UniProt Q8WUD6) | 0.258 | -0.297 | -0.149 | -0.415
40 | COLEC12 C371 | -0.0683 | -0.0458 | 0.168 | 0.202
41 | COBLL1 C223 (UniProt Q53SF7) | -0.0585 | -0.091 | -0.293 | -0.133
42 | CORO2A C335 (UniProt Q92828) | -0.0657 | -0.17 | -0.423 | -0.203
43 | CLASP2 C976 (UniProt O75122) | -0.161 | -0.284 | 0.156 | -0.352
